Test results as given in PMC10147604.

Chains of the proteins cited; added tags and fusions are not shown.
UniProt Q93009: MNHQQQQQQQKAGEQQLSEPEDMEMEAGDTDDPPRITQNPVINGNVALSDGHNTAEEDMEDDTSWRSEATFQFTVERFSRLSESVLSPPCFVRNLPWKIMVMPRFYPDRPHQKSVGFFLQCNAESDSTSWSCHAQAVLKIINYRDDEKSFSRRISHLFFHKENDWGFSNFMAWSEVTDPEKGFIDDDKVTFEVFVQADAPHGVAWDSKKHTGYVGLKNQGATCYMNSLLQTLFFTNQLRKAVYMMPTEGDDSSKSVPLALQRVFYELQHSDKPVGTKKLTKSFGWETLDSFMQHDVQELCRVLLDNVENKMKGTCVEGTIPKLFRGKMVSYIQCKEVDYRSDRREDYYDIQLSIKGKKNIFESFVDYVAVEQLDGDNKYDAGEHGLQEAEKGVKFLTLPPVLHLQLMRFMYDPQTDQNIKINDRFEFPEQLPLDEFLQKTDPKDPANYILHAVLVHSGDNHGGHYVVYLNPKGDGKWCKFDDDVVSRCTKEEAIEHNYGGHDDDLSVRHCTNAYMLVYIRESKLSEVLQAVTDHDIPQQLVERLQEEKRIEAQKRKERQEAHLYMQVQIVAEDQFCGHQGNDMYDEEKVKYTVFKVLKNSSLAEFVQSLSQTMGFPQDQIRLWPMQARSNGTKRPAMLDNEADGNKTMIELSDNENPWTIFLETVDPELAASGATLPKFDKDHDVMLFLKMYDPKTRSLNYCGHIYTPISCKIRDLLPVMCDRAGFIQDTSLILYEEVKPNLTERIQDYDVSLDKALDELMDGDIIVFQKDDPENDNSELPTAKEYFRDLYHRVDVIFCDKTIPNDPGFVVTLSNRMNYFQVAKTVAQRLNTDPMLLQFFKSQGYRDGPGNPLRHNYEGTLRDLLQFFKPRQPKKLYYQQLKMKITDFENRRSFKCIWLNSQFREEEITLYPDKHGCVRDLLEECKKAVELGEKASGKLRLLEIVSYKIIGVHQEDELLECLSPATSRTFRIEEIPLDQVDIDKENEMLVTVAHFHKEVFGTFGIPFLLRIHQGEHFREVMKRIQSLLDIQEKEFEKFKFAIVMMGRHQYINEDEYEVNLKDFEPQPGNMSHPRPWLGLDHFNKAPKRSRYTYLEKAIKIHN

Target: T1, N-terminally HA-tagged NGN3 (HA-NGN3^WT) (UniProt P70661)
T1 sequence: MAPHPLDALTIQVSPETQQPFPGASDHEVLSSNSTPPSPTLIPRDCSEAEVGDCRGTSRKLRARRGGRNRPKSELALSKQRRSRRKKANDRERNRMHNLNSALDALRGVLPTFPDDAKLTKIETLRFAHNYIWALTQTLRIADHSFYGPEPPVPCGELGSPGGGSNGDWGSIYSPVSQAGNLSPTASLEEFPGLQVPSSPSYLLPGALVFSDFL
Assay: affinity purification with mass spectrometry; anti-HA magnetic beads on lysates of HEK293A cells transfected with pcDNA3-HA-NGN3 (duplicates) or empty pcDNA3; NP-40 lysis buffer; LC-MS/MS of gel sections

binding: binds
Substance: endogenous USP7 (from UniProt Q93009 1-1102) (enzyme)

Results are given in words; binding and its absence hold for the method and conditions named. In cells and extracts the contact can be indirect. Here binding means that the protein was enriched with, or labelled near, the bait; the list need not be complete. Tags and fused reporters may be left off the sequences shown.
